# PubChem BioAssay AID1508597, Cure First, 2020
# Assay: 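Genes whose silencing sensitises or protects ovarian cancer cells against rucaparib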 (primary screen)
# Cell system: human ovarian carcinoma lines grown from tumours: OCI-P5x (papillary serous) and OCI-C5x (clear cell)
# Knock-down reagent: siRNA pool against human genes, 1.25 pmol siRNA per well
# Timing: 72 h or 96 h, depending on the cell culture
# Conditions: rucaparib 20 µM (about IC30) or vehicle, present until read-out
# Rucaparib or vehicle: Vehicle
# Cell line: OCI-P5x (serous)
# Read-out: 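ATP luminescence measured at 72 or 96 h according to the culture, then normalised and expressed as percent viability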
# Direction: viability, normalised: higher = more viable cells remaining
# Hit rule: 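Active when normalised viability falls below 80 percent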
# Meaning of the calls: active = viability under 80%; inactive = viability 80% or more
# This is an unselected part of the about 2,100 reagents, in one setting of the screen. 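Calls flag viability under 80% in either arm, not effects specific to rucaparib; the reference for percent is not stated.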 The numbers tell different reagents against one gene apart. Not given: the 100% reference.
target gene,reagent,technical replicate,"viability, normalised (%)",Call
TYMS,1,1,83,inactive
TYMS,1,2,87.2,inactive
TYMS,1,3,115,inactive
TNP1,1,1,66.3,active
TNP1,1,2,95.4,inactive
TNP1,1,3,119,inactive
CDKL5,1,1,99.8,inactive
CDKL5,1,2,90.5,inactive
CDKL5,1,3,92.2,inactive
RNASEL,1,1,81.1,inactive
RNASEL,1,2,68.6,active
RNASEL,1,3,65.2,active
MED10,1,1,84.4,inactive
MED10,1,2,96.8,inactive
MED10,1,3,91.5,inactive
BARD1,1,1,78.3,active
BARD1,1,2,60,active
BARD1,1,3,75.9,active
FOXP3,1,1,88,inactive
FOXP3,1,2,93,inactive
FOXP3,1,3,136,inactive
NCOA6,1,1,74.9,active
NCOA6,1,2,61.9,active
NCOA6,1,3,70.3,active
NME2,1,1,64.3,active
NME2,1,2,57.2,active
NME2,1,3,119,inactive
DTX3L,1,1,66,active
DTX3L,1,2,69.9,active
DTX3L,1,3,119,inactive
RBBP5,1,1,70.2,active
RBBP5,1,2,80.9,inactive
RBBP5,1,3,103,inactive
LIG3,1,1,29.1,active
LIG3,1,2,42.3,active
LIG3,1,3,37.8,active
NME9,1,1,69.6,active
NME9,1,2,96.5,inactive
NME9,1,3,56.1,active
NME9,2,1,96.4,inactive
NME9,2,2,78.5,active
NME9,2,3,74.1,active
ZNF830,1,1,69.4,active
ZNF830,1,2,38.5,active
ZNF830,1,3,69.3,active
HIPK2,1,1,94.7,inactive
HIPK2,1,2,72.3,active
HIPK2,1,3,88.7,inactive
PHKA2,1,1,87.8,inactive
PHKA2,1,2,97.7,inactive
PHKA2,1,3,98.1,inactive
PIK3R1,1,1,47.9,active
PIK3R1,1,2,52.1,active
PIK3R1,1,3,81.1,inactive
LHCGR,1,1,41.1,active
LHCGR,1,2,58.9,active
LHCGR,1,3,56.2,active

Part of the list above, set out differently:
target gene | reagent | technical replicate | viability, normalised (%) | Call
RBBP5 | 1 | 1 | 70.2 | active
RBBP5 | 1 | 2 | 80.9 | inactive
RBBP5 | 1 | 3 | 103 | inactive
LIG3 | 1 | 1 | 29.1 | active
LIG3 | 1 | 2 | 42.3 | active
LIG3 | 1 | 3 | 37.8 | active
NME9 | 1 | 1 | 69.6 | active
NME9 | 1 | 2 | 96.5 | inactive
NME9 | 1 | 3 | 56.1 | active
